Laboratory results taken from paper PMC9322903.
These are yes or no findings as the source states them, for the method shown. In cells and extracts the contact can be indirect. Some entries that bind do so weakly or less than the wild type.

Protein sequences, listed by entry. Tags and fused reporters are not part of them.
UniProt A0A0G2K344: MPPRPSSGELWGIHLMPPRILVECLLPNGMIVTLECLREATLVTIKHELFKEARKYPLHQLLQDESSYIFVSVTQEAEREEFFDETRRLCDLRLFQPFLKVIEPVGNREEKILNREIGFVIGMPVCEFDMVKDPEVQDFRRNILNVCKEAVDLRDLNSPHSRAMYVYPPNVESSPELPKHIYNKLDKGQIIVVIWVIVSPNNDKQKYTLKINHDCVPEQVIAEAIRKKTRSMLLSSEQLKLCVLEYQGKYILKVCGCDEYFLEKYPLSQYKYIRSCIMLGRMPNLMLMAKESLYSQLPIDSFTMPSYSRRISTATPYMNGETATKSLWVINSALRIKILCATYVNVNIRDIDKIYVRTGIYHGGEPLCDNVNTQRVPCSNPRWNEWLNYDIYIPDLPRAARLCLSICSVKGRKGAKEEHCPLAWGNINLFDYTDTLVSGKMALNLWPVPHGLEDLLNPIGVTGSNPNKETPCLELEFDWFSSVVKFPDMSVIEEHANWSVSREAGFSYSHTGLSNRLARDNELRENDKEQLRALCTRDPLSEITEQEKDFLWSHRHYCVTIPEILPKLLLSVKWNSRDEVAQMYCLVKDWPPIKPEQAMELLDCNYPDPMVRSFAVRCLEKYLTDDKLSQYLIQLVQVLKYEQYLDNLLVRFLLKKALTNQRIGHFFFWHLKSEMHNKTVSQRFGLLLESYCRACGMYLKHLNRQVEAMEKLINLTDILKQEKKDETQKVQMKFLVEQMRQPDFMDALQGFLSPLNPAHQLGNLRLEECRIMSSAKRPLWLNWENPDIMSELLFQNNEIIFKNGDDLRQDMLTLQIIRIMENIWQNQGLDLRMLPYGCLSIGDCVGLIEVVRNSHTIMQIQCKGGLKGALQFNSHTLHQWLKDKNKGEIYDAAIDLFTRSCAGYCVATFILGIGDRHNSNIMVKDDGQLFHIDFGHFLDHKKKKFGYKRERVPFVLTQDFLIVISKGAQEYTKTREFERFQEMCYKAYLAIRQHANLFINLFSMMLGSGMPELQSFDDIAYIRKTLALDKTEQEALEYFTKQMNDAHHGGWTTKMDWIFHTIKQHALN

T1: Phosphoinositide-3-kinase (PI3K)-interacting protein 1 (PIK3IP1) (rat (endogenous in H9c2)) (UniProt Q56A20)
T1 sequence: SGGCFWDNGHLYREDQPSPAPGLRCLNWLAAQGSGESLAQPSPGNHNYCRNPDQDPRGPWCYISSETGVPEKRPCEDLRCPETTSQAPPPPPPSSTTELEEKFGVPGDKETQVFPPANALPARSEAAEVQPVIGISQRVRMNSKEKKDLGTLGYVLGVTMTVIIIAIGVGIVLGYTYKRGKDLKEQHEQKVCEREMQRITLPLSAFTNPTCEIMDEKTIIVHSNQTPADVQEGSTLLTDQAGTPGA


molecular target: T1, Phosphoinositide-3-kinase (PI3K)-interacting protein 1 (PIK3IP1) (rat (endogenous in H9c2)); assay: co-IP; H9c2 cells lysed in NP-40 buffer with protease inhibitors; Dynabeads protein G with 10 μL of antibodies or rabbit IgG (mock IP); eluted proteins detected by Western blotting

binding	Molecule
binds	p110α (catalytic subunit of PI3Kα) (from UniProt A0A0G2K344 1-1068)
binds	endothelin A receptor (ETA) (receptor, UniProt P26684 21-426) DNAERYSANLSSHVEDFTPFPGTEFNFLGTTLQPPNLALPSNGSMHGYCPQQTKITTAFKYINTVISCTIFIVGMVGNATLLRIIYQNKCMRNGPNALIASLALGDLIYVVIDLPINVFKLLAGRWPFDHNDFGVFLCKLFPFLQKSSVGITVLNLCALSVDRYRAVASWSRVQGIGIPLITAIEIVSIWILSFILAIPEAIGFVMVPFEYKGEQHRTCMLNATTKFMEFYQDVKDWWLFGFYFCMPLVCTAIFYTLMTCEMLNRRNGSLRIALSEHLKQRREVAKTVFCLVVIFALCWFPLHLSRILKKTVYDEMDKNRCELLSFLLLMDYIGINLATMNSCINPIALYFVSKKFKNCFQSCLCCCCHQSKSLMTSVPMNGTSIQWKNQEQNHNTERSSHKDSMN
no binding	endothelin B receptor (ETB) (receptor, UniProt P21451 27-442) EKRGFPPAQATPSLLGTKEVMTPPTKTSWTRGSNSSLMRSSAPAEVTKGGRVAGVPPRSFPPPCQRKIEINKTFKYINTIVSCLVFVLGIIGNSTLLRIIYKNKCMRNGPNILIASLALGDLLHIIIDIPINAYKLLAGDWPFGAEMCKLVPFIQKASVGITVLSLCALSIDRYRAVASWSRIKGIGVPKWTAVEIVLIWVVSVVLAVPEAIGFDVITSDYKGKPLRVCMLNPFQKTAFMQFYKTAKDWWLFSFYFCLPLAITAIFYTLMTCEMLRKKSGMQIALNDHLKQRREVAKTVFCLVLVFALCWLPLHLSRILKLTLYDQSNPQRCELLSFLLVLDYIGINMASLNSCINPIALYLVSKRFKNCFKSCLCCWCQTFEEKQSLEEKQSCLKFKANDHGYDNFRSSNKYSSS
